Experimental data as given in PubChem BioAssay AID2685 (National Center for Advancing Translational Sciences (NCATS), 2010).
This is one part of the list. The main result of the screen is listed elsewhere. These columns were measured beside it and carry no call. Most of these compounds were active or inconclusive in the main read-out, so they are no random draw. The note in brackets gives the kind of curve behind each potency; many fits are weak.

Assay: qHTS Assay for Lipid Storage Modulators in Drosophila S3 Cells;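 on cell number change: cells counted by Cell Tracker Red CMTPX staining in the red channel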
Conditions: BODIPY lipid droplet fluorescence, 18-24 h; for cell number change: measured here: cell count max response, cells fed with added oleic acid
Outline: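 Drosophila S3 cells got compounds at several concentrations plus oleic acid (400 uM solution). Laser-scanning cytometry with 488 nm excitation read lipid droplets at 500-530 nm and cells at 575-640 nm. Percent activity was relative to 20 uM Triacsin C.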

[1] = measured here: cell number channel AC50, cells fed with added oleic acid
[2] = measured here: lipid fluorescence (Fed channel) AC50, cells fed with added oleic acid

Question: Which results are given for `COc1ccc(/C=N/NC(=O)c2ccn[nH]2)cc1CN1CCOCC1`?
Answer: cell number change: -26.6%; AC50 [1]: 0.116 µM [falling, full curve, poor fit]

Question: With `CCCCCCCCNC(=S)NCCN1CCCCC1` as the compound, how does the AC50 [1] read?
Answer: Its AC50 is 0.92 µM [falling, full curve, poor fit].

Question: With `CC(C)c1ccc(NC(=O)C2CCCN(S(=O)(=O)c3ccc4c(c3)C(C)(C)C(=O)N4C)C2)cc1` (centres undefined) as the compound, how does the cell number change read?
Answer: Its cell number change is 19.5%.

Question: What about the AC50 [2] of the same compound?
Answer: The AC50 was 29.1 µM [falling, single point].

Question: Which cell number change does the source give for `Cc1nc2ccccc2n1Cc1ccccc1Br` here?
Answer: Its cell number change is 2.85%.

Question: And the AC50 [2]?
Answer: The AC50 was 20.6 µM [falling, single point].

Question: With `Cc1ccc(S(=O)(=O)N2CC(O)CC2C(=O)Nc2ccc3c(c2)CCC3)cc1` (centres undefined) as the compound, how does the cell number change read?
Answer: The cell number change was 14.4%.

Question: And the AC50 [2]?
Answer: Its AC50 is 29.1 µM [rising, single point].

Question: Which cell number change does the source give for `O=C1OC(c2ccc(F)cc2)=N/C1=C\C=C/c1ccccc1` here?
Answer: Its cell number change is 24.5%.

Question: What about the AC50 [2] of the same compound?
Answer: The AC50 was 11.6 µM [rising, partial curve].

Question: What does the source list for `Cc1cc(NC(=O)CSc2nc3cc(Cl)ccc3c(=O)n2C(C)C)no1`?
Answer: cell number change: 53.5%; AC50 [1]: 3.66 µM [rising, partial curve]

Question: What does the source list for `COc1cccc(C(=O)c2c(C)c(CCC#N)n3ccccc23)c1`?
Answer: cell number change: 16.6%; AC50 [2]: 0.116 µM [falling, partial curve, poor fit]

Question: For `Cc1ccc(N2CC(C(=O)N3CCN(Cc4ccc5c(c4)OCO5)CC3)CC2=O)cc1` (centres undefined), which cell number change is on record?
Answer: Its cell number change is 2.17%.

Question: And the AC50 [2]?
Answer: The AC50 was 0.58 µM [rising, single point].

Question: For `CC1=CC(C)C2(CO)COC(c3ccccc3O)C1C2C` (centres undefined), which cell number change is on record?
Answer: The cell number change was -30.3%.

Question: What about the AC50 [1] of the same compound?
Answer: The AC50 was 29.1 µM [falling, single point].

Question: With `COc1ccccc1C1Nc2ccccc2NC2=C1C(=O)CC(C)(C)C2` (centres undefined) as the compound, how does the AC50 [2] read?
Answer: Its AC50 is 0.0411 µM [falling, full curve, poor fit].

Question: Which results are given for `O=C(c1cc(-c2ccncc2)nc2ccc(Cl)cc12)N1CCN(Cc2ccc3c(c2)OCO3)CC1`?
Answer: cell number change: 21.8%; AC50 [1]: 0.411 µM [rising, full curve, poor fit]

Question: What does the source list for `CCOC(=O)c1ccc(Nc2ccc([N+](=O)[O-])cn2)cc1`?
Answer: cell number change: 0.905%; AC50 [2]: 0.731 µM [falling, full curve, poor fit]

Question: Which results are given for `Cc1ccc(Cl)cc1N1CCN(S(=O)(=O)N2CCCCC2)CC1`?
Answer: cell number change: 5.55%; AC50 [2]: 6.51 µM [falling, single point]

Question: What does the source list for `CCOc1cc(/C=C2\C(=N)N3N=C(CC)SC3=NC2=O)ccc1OCCOc1ccc(NC(C)=O)cc1`?
Answer: cell number change: 1.39%; AC50 [1]: 0.58 µM [rising, single point]; AC50 [2]: 13 µM [rising, partial curve]

Question: With `Cc1cc(C)n2c(SCC(=O)NC3CCCC(C)C3C)nnc2n1` (centres undefined) as the compound, how does the cell number change read?
Answer: The cell number change was 2.03%.

Question: And the AC50 [2]?
Answer: The AC50 was 29.1 µM [falling, partial curve, poor fit].

Question: Which results are given for `COCCN(Cc1cc2cc3c(cc2nc1Cl)OCO3)C(=O)c1cccc(C)c1`?
Answer: cell number change: -23.9%; AC50 [2]: 23.1 µM [falling, single point]

Question: With `O=C(CSc1nc2ccc(Cl)cc2[nH]1)Nc1ccc2c(c1)CCC2` as the compound, how does the cell number change read?
Answer: Its cell number change is -54.4%.

Question: What about the AC50 [1] of the same compound?
Answer: Its AC50 is 20.6 µM [falling, partial curve].

Question: And the AC50 [2]?
Answer: Its AC50 is 1.84 µM [falling, partial curve, poor fit].

Question: Which cell number change does the source give for `CO/N=C/NC(=O)NOCc1c(Cl)cccc1Cl` here?
Answer: Its cell number change is 17%.

Question: What about the AC50 [1] of the same compound?
Answer: The AC50 was 6.51 µM [rising, single point].

Question: And the AC50 [2]?
Answer: Its AC50 is 23.1 µM [rising, partial curve].

Question: What does the source list for `Cc1cc(=O)[nH]c(SCC(=O)Nc2cccc3ccccc23)c1C#N`?
Answer: cell number change: 17.8%; AC50 [2]: 6.51 µM [falling, single point]

Question: For `O=C(c1cccc(Cl)c1)N1CCCc2ccccc21`, which cell number change is on record?
Answer: The cell number change was 0.88%.

Question: With `C=CCn1c2ccccc2c2nnc(SCCN3CCOCC3)nc21` as the compound, how does the cell number change read?
Answer: The cell number change was 18.2%.

Question: For `O=C(CSCc1ccc([N+](=O)[O-])cc1)NC1CC1`, which cell number change is on record?
Answer: The cell number change was -8.73%.

Question: What about the AC50 [2] of the same compound?
Answer: Its AC50 is 1.46 µM [falling, full curve, poor fit].

Question: With `Cc1ccn2c(=O)c(C(=O)NCCN3CCOCC3)c(O)nc2c1` as the compound, how does the AC50 [2] read?
Answer: Its AC50 is 6.51 µM [falling, single point].

Question: For `COc1ccc(NC2CCCN(C(=O)CCCn3cncn3)C2)cc1OC` (centres undefined), which cell number change is on record?
Answer: Its cell number change is 5.34%.

Question: For `Cc1ccc(C(=O)/C=C/Nc2ccc(S(=O)(=O)Nc3onc(C)c3C)cc2)cc1`, which cell number change is on record?
Answer: The cell number change was -19.9%.

Question: What about the AC50 [1] of the same compound?
Answer: Its AC50 is 2.91 µM [rising, partial curve].

Question: And the AC50 [2]?
Answer: Its AC50 is 4.11 µM [falling, single point].

Question: What does the source list for `COC(=O)c1cnn(-c2ccccc2)c1/C=N/NC(=S)Nc1ccc(Cl)cc1`?
Answer: cell number change: 12%; AC50 [2]: 0.231 µM [rising, full curve, poor fit]

Question: With `O=[N+]([O-])c1ccccc1OCCCN1CCc2ccccc2C1` as the compound, how does the cell number change read?
Answer: Its cell number change is -2.65%.

Question: And the AC50 [2]?
Answer: Its AC50 is 0.58 µM [falling, single point].

Question: With `O=c1n(Cc2ccc(Cl)cc2)c2sc3c(c2c2ncnn12)CCCC3` as the compound, how does the cell number change read?
Answer: Its cell number change is -20.8%.

Question: With `COc1ccc(-c2noc(CN(C)C(=O)c3ccoc3C)n2)cc1` as the compound, how does the cell number change read?
Answer: Its cell number change is 6.96%.

Question: What does the source list for `CCOC(=O)N1CCC(NCCNC(=O)c2cccs2)CC1`?
Answer: cell number change: 4.77%; AC50 [2]: 29.1 µM [rising, single point]

Question: Which cell number change does the source give for `CC(C)CC(=O)Nc1sc2c(c1C(=O)O)CCCCC2` here?
Answer: Its cell number change is -2.87%.

Question: What about the AC50 [1] of the same compound?
Answer: The AC50 was 6.51 µM [falling, single point].

Question: What about the AC50 [2] of the same compound?
Answer: Its AC50 is 6.51 µM [falling, single point].

Question: Which cell number change does the source give for `CN(C)c1ccc(Sc2nnc(NC(=O)Nc3ccc(Cl)cc3Cl)s2)cc1` here?
Answer: The cell number change was -6.33%.

Question: What about the AC50 [2] of the same compound?
Answer: Its AC50 is 0.291 µM [falling, full curve].

Question: Which results are given for `Cc1ccc(S(=O)(=O)N2CCN(C(=O)CC(C)n3cncn3)CC2)cc1C` (centres undefined)?
Answer: cell number change: 1.3%; AC50 [2]: 0.58 µM [rising, single point]

Question: For `CCOC(=O)c1c(C)sc2c1N(C(=O)CN1CCOCC1)c1cc(Cl)ccc1S2`, which cell number change is on record?
Answer: Its cell number change is 3.23%.

Question: What does the source list for `Nc1c(C(=O)NCc2ccco2)c2nc3ccccc3nc2n1CCc1ccc(F)cc1`?
Answer: cell number change: -4.49%; AC50 [1]: 2.06 µM [rising, partial curve]; AC50 [2]: 1.16 µM [rising, full curve]

Question: With `Cn1c(=NC(=O)C2CC2)sc2cccc(F)c21` as the compound, how does the cell number change read?
Answer: The cell number change was 6.5%.

Question: And the AC50 [2]?
Answer: Its AC50 is 4.61 µM [rising, full curve].

Question: What does the source list for `CCOC(=O)COc1ccc(Cl)cc1C1NC(=O)NC(C)=C1C(C)=O` (centres undefined)?
Answer: cell number change: 40.7%; AC50 [1]: 2.31 µM [rising, partial curve]

Question: Which AC50 [2] does the source give for `COCCCNC(=O)c1cc(OC)c(OC)c(OC)c1` here?
Answer: Its AC50 is 20.6 µM [falling, partial curve].
